Out of some 53,000 sequences screened, about 3,700 (7%) were called active.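 Rule for the calls: active = gene knockdowns whose robust z-score for IL-1 alpha signal is at least 2 or at most -2, so actives lie on both sides; inactive = the rest.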 This is one part of the list.

The test in a line: Components of the Cytosolic LPS Sensing Pathway: Gene Identification via Genome-wide siRNA Screen.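 Note: robust z of the log signal after scaling to non-targeting control siRNA wells of the plate.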 As to conditions: RAW264.7 macrophages, IL-1a HTRF, actives lie on both sides, screened at 100 nM (by protocol), cells primed 5 h with Pam3CSK4 first. Summed up: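 Supernatant IL-1a by HTRF from RAW264.7 cells primed with Pam3CSK4 (5 hours) and transfected with LipidA (24 hour) after 48h siRNA knockdown at 100 nM; cell viability checked with CellTiter-Glo.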
A general note: TR-FRET usually uses a lanthanide donor and a delayed reading to cut background.
Take GGAUUUCAUCAGUGUUCUUTT against Rrp15: the z-score was inactive: 0.421. GGGUCUCCAAACCAUCAGUTT against Kir3dl1: the z-score is inactive: -1. With GGCUACAGCAGCAAUUACATT against Zc3h13, the z-score is inactive: -1.42.

In the case of GGAGCAAAUCCAGAGCAACTT against Actr8, the z-score is inactive: 1. As for GGGCUCACCUCUCUCUUUGTT against Psd, the figure is inactive: -1.36. GGUAUUGCACCAGGCAUGUTT against Ssh3: the z-score was inactive: 0.0779. Regarding GCCCAAGGAGGCAUUGAUATT against Fbxo8, the z-score was inactive: -0.653. In the case of GGCUGGUUUACAACAGAACTT against Pla2g15, the z-score is inactive: -0.647.

As for CGCAAGCUUAUUUCAAUGGTT against Cd86, the z-score was inactive: 1.01. As for CCCUACUCGAAUUUAUAGCTT against Tmem54, the figure is inactive: -0.553; as for GGAAAGUGUUUUGUCAAUGTT against Olfr1305, inactive: 0.698; as for GCAUGCAGAGUUACUAUUGTT against Tas2r143, inactive: -0.316. In the case of GAACACAAAUCUAGUAGACTT against Olfr1109 it was inactive: 0.278. Turning to GGUCCUUCCAUAGUGACGCTT against Igfbp7, the z-score is inactive: -1.28. In the case of GGACUACAACUACCUUAACTT against Cdh3 it was inactive: 0.125; in that of GGGUGUGAGUGAUUAUGAATT against Prpf31, inactive: -1.12. As for CGGAGUUGACCUGACAUCCTT against Atp6v1c2, the figure is inactive: -0.77. As for CGGUGAAGACUAUCAUGGUTT against Tln1, the z-score is inactive: -0.791. Regarding GCUCAUGUCUUAUUUGGAUTT against Klhl15, the z-score was inactive: -0.393. In the case of GGAAAAACUACCAAGAGGATT against Pigp it was active: 2.32; in that of GCCUAGAAGAAAAACUAAATT against Eef2kmt, inactive: -0.668; in that of CCCGCUAUUACGUUUUUCUTT against Mtarc2, inactive: -0.498. As for GGCAACUUUGAGUUUGGUATT against Podn, the figure is inactive: 0.748; as for CCAUCCCAUAUGUUCCGGUTT against Ptms, inactive: 0.94; as for GCAGACUUACAUCCGGAAGTT against Mybphl, inactive: -0.119. In the case of GGACCUCUUGCUAAUCCAATT against Ptprk it was inactive: 1.03; in that of CCUCAGUCCUCUGUUAAAATT against Olfr355, inactive: -0.262; in that of GGGUUGUGAAGAGAUUAAATT against Il1rl2, inactive: 0.582. As for GCCAAGGUUAUCAUGAAUGTT against F13a1, the z-score is inactive: -0.141. As for GGAUGUUUCAGACAAGCUCTT against Olfr156, the figure is inactive: -0.578.

CGAGAACAGUUUGUACAAGTT against Serpinh1: the z-score was inactive: 0.0782. On to GGACUGUUAGCUCGCUUUGTT against Pex2, for which the z-score is inactive: -1.02. In the case of GGAGAUGAAGUCUAUAUCATT against C1ql3, the z-score is inactive: -0.222. For GGAGGACAUAUAGCUGAUUTT against Ctdsp2, the z-score is inactive: 0.302.

With GGCUGUGUUGUCGAUUUCCTT against Nkain3, the z-score is inactive: 0.351.

As for “GGCCAAGAUAAAAAAGGCCTT against 2610002M06Rik”, the z-score is inactive: -0.151.

Take GCUCUUCAGAGUGAUCCAATT against Acmsd: the z-score is inactive: -1.74. In the case of GGACUGAUCAUCUAUGACATT against Hectd4 it was inactive: -0.455; in that of GGACCUUCCGUGAGAUUAUTT against Mapk15, inactive: 0.405. For the sequence “GGAGGUUUUGGAAGAAGAATT against 1700012B09Rik”, the z-score was inactive: 1.54. As to GGAGGUGUAUGUAAUACCATT against Efs, the z-score was inactive: 0.184.

On to GGACAACUGACUCCAUCAATT against Pla2g6, for which the z-score was inactive: -0.536.

For the sequence GGCCAAAUGAAGUCAAAAGTT against Srsf12, the z-score is inactive: -0.212. On to GGAGACAUUGGAGUAUGUCTT against Cst11, for which the z-score is inactive: -0.209.

On to CGUACUUGUUUGAUUGAUCTT against Usp13, for which the z-score is inactive: 0.188. For the sequence GGGAGAGAUCCUCAACAGGTT against Cdk5rap1, the z-score was inactive: -0.581. For GGCAUAGAGUACUUGCAUUTT against Camkk2, the z-score was inactive: 0.424. As for GGAUCUUCCUCAUCACCCUTT against Ube4a, the figure is inactive: 0.657.

On to GGAAAAGGAAGAUUCUUGATT against Znrd1, for which the z-score is inactive: 0.675. As for “GGUUCGGUAUUCUGAUACATT against 1700028K03Rik”, the figure is inactive: -0.385; as for CGAUGACAUCGUGUUUGAGTT against Arrb2, inactive: -0.0108; as for GGUCAUCCUUCUAUUCUCUTT against Olfr648, active: -2.01. In the case of GGAGUCAGUAAAGAUCCUCTT against Tgif2, the z-score was inactive: 1.27.

As to GGAAUGAGUCCUCAAUUAUTT against Car1, the z-score was inactive: -0.283. In the case of GCACAGCUAACCCUGUUAGTT against Isca1 it was inactive: -0.00755; in that of GGCUUGACAUCUAGGGACATT against Dbp, inactive: 0.989; in that of GGAUCGGCUAGCUUUGAGCTT against Timm29, inactive: 1.36. As for GGAUGCAAUGACCCAAUUUTT against Ecm1, the figure is inactive: 0.616; as for GGGUUACCGUAAGCUGUUGTT against Uts2r, inactive: 0.0246. In the case of GCUGACAGUAGGAAACUAATT against Dmp1 it was inactive: -0.348; in that of CCUAUGCUAUGUAGUUUAATT against Adam21, active: 5.58; in that of GCGAAUGGAAAAUGAAGAUTT against Marf1, inactive: 0.839.

Take GGACAUUGACCUAAGCCCUTT against Pcnx: the z-score is inactive: -1.97. Turning to GGAGAUGCUGUUCUUUCCGTT against Casc3, the z-score is inactive: -1.18. As for CGUACUCUGCCAAUGCUUCTT against Sec24b, the figure is inactive: -1.22; as for GGUUUACUGUGAAAAAAGATT against Morc2b, inactive: 0.0774. As to GGAGAUCUACAUGACCUUCTT against Rgs10, the z-score is inactive: 0.564. For GGCGAUGAUUAUAAGAUUATT against Copa, the z-score was inactive: 1.28.

These data come from PubChem BioAssay AID1508600 (Functional Genomics Laboratory (NCATS/FGL), 2020).
